Data taken from publication PMC5499549, “DNA substrate recognition and processing by the full-length human UPF1 helicase”.
For some assays here: No signal at the amounts used counts as a negative. Where a protein sequence is shown, tags need not be part of it. For some assays here: A weaker result is weaker than the reference pair of the same experiment. For some assays here: The exact form of at least one protein or probe is not confirmed. For some assays here: At least one verdict was read from the data and is not stated in words by the source.

Legend:
[1] = tested on: T1, hUPF1 (full-length) (Homo sapiens); assay: EMSA; settings: 25 mM HEPES-NaOH pH 7.2, […] NaCl, 2 mM DTT, 1 mg/ml acetylated BSA, 0.1% NP40, 20 min, EMSA 20 C, MST 22 C (20 nM DNA), no nucleotide cofactor or Mg2+ unless stated, recombinant protein, residues 1-1118
T1 sequence (looked up): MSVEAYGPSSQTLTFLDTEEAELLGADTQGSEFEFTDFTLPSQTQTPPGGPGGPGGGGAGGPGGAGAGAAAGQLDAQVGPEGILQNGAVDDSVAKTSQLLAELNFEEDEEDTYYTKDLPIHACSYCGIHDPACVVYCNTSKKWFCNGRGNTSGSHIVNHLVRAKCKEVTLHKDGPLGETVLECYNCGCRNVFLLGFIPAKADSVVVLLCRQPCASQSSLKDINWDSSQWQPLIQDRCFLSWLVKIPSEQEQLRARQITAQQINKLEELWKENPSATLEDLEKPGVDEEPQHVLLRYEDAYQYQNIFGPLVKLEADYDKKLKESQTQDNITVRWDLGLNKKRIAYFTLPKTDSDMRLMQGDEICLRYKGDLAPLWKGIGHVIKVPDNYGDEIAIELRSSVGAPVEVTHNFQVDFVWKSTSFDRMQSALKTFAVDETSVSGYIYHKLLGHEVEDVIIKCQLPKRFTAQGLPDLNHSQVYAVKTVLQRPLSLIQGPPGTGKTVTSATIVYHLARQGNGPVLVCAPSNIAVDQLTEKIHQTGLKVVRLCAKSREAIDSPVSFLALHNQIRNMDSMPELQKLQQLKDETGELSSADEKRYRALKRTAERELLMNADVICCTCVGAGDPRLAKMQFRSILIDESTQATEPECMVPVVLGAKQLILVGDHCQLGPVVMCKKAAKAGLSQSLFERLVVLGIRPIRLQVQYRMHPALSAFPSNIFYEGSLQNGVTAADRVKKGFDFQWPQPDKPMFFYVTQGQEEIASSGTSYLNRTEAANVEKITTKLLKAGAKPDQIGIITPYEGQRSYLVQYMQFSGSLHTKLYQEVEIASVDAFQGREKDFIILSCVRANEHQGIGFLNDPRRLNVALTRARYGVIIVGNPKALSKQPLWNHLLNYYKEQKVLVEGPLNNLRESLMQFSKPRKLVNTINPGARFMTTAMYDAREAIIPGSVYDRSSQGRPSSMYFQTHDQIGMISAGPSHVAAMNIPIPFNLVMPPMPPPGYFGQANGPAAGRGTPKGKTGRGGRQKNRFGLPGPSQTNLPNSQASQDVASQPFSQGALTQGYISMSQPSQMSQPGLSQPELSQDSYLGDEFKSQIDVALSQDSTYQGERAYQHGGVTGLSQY

[2] = tested on: T1, hUPF1 (full-length) (Homo sapiens); assay: competition with a labelled probe; settings: vs 0.25 nM 32P-DNA35, 10 nM hUPF1, >>1000, little competition; 25 mM HEPES-NaOH pH 7.2, […] NaCl, 2 mM DTT, 1 mg/ml acetylated BSA, 0.1% NP40, 20 min; EMSA 20 C, MST 22 C (20 nM DNA); no nucleotide cofactor or Mg2+ unless stated; recombinant protein; residues 1-1118; label: 32P (EMSA), none as competitor; single-stranded DNA
[3] = 0.2-5 nM hUPF1, label: 32P, single-stranded DNA
[4] = ATP/MgCl2, binding substantially reduced, label: 5' 32P (EMSA), none as competitor, single-stranded DNA

TTTTTTTTTTTTTTTTTTTTTTTTT [d(T)25]
binding result [1, 3]: binds

ACGTTCTAGAGCGCGCGCCACCCAGCAAACAACACTGGGGGAGGGGGACGGTGAAGGCCAAGTTCCCCGCCAGTCGGCTTAGATCTAGATGCA / TGCATCTAGATCTAAGCCGACTGGCGGGGAACTTGGCCTTCACCGTCCCCCTCCCCCAGTGTTGTTTGCTGGGTGGCGCGCGCTCTAGAACGT / GGAAGCGGTAGGGGGAGGGGG [TripT0 triplex]
binding result ([1]; 10 mM MgCl2, up to 40 nM hUPF1, label: 5' 32P on third strand, folded or branched DNA): no binding

CACAAGCAACCAATCGGTTCGACACTCATACTGGC (double strand) [dsDNA35]
binding result ([1]; minimal, similar to G4 DNA, label: 32P): binds more weakly

TTTTTTTTTTTTTTTTTTTTTTTTTTTTTTTTTTT [d(T)35]
binding result [1, 4]: binds more weakly

UUUUUUUUUUUUUUUUUUUUUUUUUUUUUUUUUUU [(U)35]
binding result ([1]; ATP/MgCl2, binding substantially reduced, label: 32P (EMSA), none as competitor): binds more weakly

TTTTTTTTTTTTTTT [d(T)15]
binding result [1, 3]: binds more weakly

TTTTTGGGGTTTTGGGG [ss precursor of G4 DNA]
binding result ([1]; equivalent to d(T)18, label: 32P, single-stranded DNA): binds

AAAAAAAAAAAAAAAAAAAAAAAAAAAAAAAAAAA [d(A)35]
binding result ([1]; barely detectable, label: 32P (EMSA), none as competitor, single-stranded DNA): binds more weakly
IC50 [2]: > 1000 nM

CACAAGCAACCAATCGGTTCGACACTCATACTGGC [DNA35]
binding result [1, 4]: binds more weakly

GGAAGCGGTAGGGGGAGGGGG [triplex forming oligonucleotide (21 nt)]
binding result ([1]; 10 mM MgCl2, minor free fraction in TripT0 sample, label: 5' 32P, single-stranded DNA): no binding
